This is one part of the list. Values are raw readings; no control value is given beside them.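 First-pass screen: polymyxin B was added at a level that permeabilizes the Salmonella outer membrane while sparing the inner membrane. DMSO wells, with and without polymyxin B, defined maximum growth. Because plates differed from one another, each plate's data were ranked separately and the compounds with the lowest OD600 were carried forward as hits.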

This note sets out measurements from the supplement of paper PMC12889115.

This experiment relates to Salmonella enterica serovar Typhimurium SL1344. As to the kind of experiment: bacterial growth OD600 after 18 h with compound and polymyxin B; higher = more bacterial growth (less inhibition). Conditions: 50 µM, Mueller-Hinton broth.

As for `COc1ccccc1C(=O)C1CCCN(C(=O)CN2C(=O)c3ccccc3C2=O)C1` (centres undefined), the “bacterial growth OD600” value (polymyxin B 1 µg/mL) stood at 0.171.
On to `COc1cccc(N2C(=O)CN(Cc3cnn(C)c3)CC2C)c1` (centres undefined), for which the “bacterial growth OD600” value (polymyxin B 0.75 µg/mL) turned out to be 0.834.
As for `Cc1cc(C)n(CCN(C)C(=O)CC2(c3ccccc3Cl)CC(=O)N(C3CCCC3)C2=O)n1` (centres undefined), where the note is “polymyxin B 0.75 µg/mL”, the “bacterial growth OD600” value worked out at 0.074.
On the same count and under the same terms, in the case of `Cc1c(C(=O)N(C)C(C)C)sc2ncnc(N3CCCCCCC3)c12` it was 0.007.
On to `Cc1ncoc1C(=O)N1CCCC(N2CCN(Cc3ccc4c(c3)OCO4)CC2)C1` (centres undefined), for which the “bacterial growth OD600” value (polymyxin B 1 µg/mL) is 0.921.
In the case of `Cc1nc(N2CCC(C(=O)NC3C4CC5CC3CC(O)(C5)C4)CC2)nc2ccccc12` (centres undefined), the “bacterial growth OD600” value (polymyxin B 0.75 µg/mL) was 0.794.
Regarding `COC(=O)c1ccccc1C(=O)N(C)CC1CCCN(CCc2ccc(Cl)cc2)C1` (centres undefined), the “bacterial growth OD600” value (polymyxin B 1 µg/mL) turned out to be 0.87.
Still for that read-out and setting: to `Cc1nonc1CC(=O)NC1CC(=O)N(Cc2ccccc2C(F)(F)F)C1` (centres undefined) belongs 1.01; to `Cc1ccc(-c2n[nH]cc2CN2CCN(c3ccc(Cl)cn3)CC2)cc1C`, -0.001; to `CCCOC1CCCN(Cc2cnc(S(=O)(=O)C(C)C)n2CCC(C)C)C1` (centres undefined), 0.554.
As for `COCCN(Cc1ccccn1)C(Cc1ccccc1)C1CCN(Cc2cc3ccccc3[nH]2)CC1` (centres undefined), where the note is “polymyxin B 0.75 µg/mL”, the “bacterial growth OD600” value is 0.548.
For `COc1cccc(OCc2cc(C(=O)NC3CCOC(C)(C)C3)n[nH]2)c1` (centres undefined), the “bacterial growth OD600” value (polymyxin B 1 µg/mL) worked out at 0.89.
For `CCOC(=O)N1CCN(C(=O)C2CC23CCN(C(=O)c2cc(C4CC4)nc4ccccc24)CC3)CC1` (centres undefined), the “bacterial growth OD600” value (polymyxin B 0.75 µg/mL) came out at 0.815.
On the same count and under the same terms, in the case of `CC#CCN1C(=O)NC(CCCc2ccccc2)(C2CCN(Cc3cccc(OC)c3)CC2)C1=O` (centres undefined) it was 0.593.
Regarding `CCn1nc(C(C)C)cc1C(=O)N1CCCC(CO)(Cc2ccc(F)cc2F)C1` (centres undefined), the “bacterial growth OD600” value (polymyxin B 1 µg/mL) came to 0.684.
Still for that read-out and setting: in the case of `O=C(NC1CC(=O)N(CCc2cccc(Cl)c2)C1)c1ccsc1` (centres undefined) it was 0.87.
As to `COc1ccc(CCNC(=O)CCC2(Cc3ccc(OC)cc3F)CCC(=O)N2)cc1` (centres undefined), the “bacterial growth OD600” value (polymyxin B 0.75 µg/mL) is 0.946.
In the case of `COc1cccc(CN2C[C@H]3OC(=O)N(Cc4ccc(OC)c(OC)c4)[C@H]3C2)c1`, the “bacterial growth OD600” value (polymyxin B 1 µg/mL) amounted to 1.06.
The same measure, in the same setting: to `CCOC(=O)C1(Cc2ccccc2)CCCN(C2CCCC2)C1` (centres undefined) belongs 0.869.
